Results: the supplement of paper PMC11732987, “Enantioselective OTUD7B fragment discovery through chemoproteomics screening and high-throughput optimisation” (Communications Chemistry, 2025)
This is one part of the list. The data scatter; read single values as rough.

Chains of the proteins cited; added tags and fusions are not shown. Lines headed by an entry give the natural chain unless they say otherwise; changes in a name come on top. Residues count along the entry.
UniProt Q92575: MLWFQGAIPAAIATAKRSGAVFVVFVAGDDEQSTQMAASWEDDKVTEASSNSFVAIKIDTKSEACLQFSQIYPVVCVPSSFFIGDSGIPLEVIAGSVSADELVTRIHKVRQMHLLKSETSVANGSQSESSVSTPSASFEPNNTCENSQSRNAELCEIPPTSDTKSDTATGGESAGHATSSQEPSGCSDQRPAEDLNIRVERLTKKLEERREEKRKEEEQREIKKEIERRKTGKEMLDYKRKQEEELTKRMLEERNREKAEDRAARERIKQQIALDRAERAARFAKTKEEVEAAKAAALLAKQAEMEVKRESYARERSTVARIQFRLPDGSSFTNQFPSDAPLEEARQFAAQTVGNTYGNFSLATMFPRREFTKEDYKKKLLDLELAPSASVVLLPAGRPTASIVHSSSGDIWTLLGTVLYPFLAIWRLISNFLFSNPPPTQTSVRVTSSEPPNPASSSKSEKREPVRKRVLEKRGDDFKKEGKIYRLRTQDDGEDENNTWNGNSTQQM
UniProt O94874: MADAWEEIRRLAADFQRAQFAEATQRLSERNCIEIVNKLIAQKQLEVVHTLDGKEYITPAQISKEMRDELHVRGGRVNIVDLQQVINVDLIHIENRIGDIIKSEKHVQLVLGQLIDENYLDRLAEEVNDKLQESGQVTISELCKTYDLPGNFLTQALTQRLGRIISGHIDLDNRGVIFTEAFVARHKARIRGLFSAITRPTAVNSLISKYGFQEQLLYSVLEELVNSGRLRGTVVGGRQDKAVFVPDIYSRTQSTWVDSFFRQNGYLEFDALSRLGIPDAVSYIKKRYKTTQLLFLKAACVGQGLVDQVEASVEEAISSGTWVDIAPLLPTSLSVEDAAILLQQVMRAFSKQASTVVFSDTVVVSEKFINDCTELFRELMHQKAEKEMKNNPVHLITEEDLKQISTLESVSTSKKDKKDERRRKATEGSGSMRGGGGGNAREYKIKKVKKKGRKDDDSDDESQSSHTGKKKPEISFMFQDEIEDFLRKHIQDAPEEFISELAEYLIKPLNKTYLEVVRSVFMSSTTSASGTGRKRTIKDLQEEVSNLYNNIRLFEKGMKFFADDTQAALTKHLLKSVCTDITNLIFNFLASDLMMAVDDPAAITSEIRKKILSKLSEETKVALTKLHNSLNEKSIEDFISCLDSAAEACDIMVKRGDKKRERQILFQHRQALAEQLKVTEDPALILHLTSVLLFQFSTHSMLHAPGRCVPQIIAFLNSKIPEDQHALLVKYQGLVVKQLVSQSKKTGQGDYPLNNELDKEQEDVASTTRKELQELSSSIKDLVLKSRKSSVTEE
UniProt O95292, whole entry, looked up: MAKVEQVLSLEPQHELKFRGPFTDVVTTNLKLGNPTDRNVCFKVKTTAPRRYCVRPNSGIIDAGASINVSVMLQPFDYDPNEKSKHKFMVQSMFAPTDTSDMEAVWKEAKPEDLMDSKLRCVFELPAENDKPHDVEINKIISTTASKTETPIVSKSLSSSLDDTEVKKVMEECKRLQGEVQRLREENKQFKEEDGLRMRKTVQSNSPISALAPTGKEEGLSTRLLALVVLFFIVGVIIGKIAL
UniProt Q70CQ2: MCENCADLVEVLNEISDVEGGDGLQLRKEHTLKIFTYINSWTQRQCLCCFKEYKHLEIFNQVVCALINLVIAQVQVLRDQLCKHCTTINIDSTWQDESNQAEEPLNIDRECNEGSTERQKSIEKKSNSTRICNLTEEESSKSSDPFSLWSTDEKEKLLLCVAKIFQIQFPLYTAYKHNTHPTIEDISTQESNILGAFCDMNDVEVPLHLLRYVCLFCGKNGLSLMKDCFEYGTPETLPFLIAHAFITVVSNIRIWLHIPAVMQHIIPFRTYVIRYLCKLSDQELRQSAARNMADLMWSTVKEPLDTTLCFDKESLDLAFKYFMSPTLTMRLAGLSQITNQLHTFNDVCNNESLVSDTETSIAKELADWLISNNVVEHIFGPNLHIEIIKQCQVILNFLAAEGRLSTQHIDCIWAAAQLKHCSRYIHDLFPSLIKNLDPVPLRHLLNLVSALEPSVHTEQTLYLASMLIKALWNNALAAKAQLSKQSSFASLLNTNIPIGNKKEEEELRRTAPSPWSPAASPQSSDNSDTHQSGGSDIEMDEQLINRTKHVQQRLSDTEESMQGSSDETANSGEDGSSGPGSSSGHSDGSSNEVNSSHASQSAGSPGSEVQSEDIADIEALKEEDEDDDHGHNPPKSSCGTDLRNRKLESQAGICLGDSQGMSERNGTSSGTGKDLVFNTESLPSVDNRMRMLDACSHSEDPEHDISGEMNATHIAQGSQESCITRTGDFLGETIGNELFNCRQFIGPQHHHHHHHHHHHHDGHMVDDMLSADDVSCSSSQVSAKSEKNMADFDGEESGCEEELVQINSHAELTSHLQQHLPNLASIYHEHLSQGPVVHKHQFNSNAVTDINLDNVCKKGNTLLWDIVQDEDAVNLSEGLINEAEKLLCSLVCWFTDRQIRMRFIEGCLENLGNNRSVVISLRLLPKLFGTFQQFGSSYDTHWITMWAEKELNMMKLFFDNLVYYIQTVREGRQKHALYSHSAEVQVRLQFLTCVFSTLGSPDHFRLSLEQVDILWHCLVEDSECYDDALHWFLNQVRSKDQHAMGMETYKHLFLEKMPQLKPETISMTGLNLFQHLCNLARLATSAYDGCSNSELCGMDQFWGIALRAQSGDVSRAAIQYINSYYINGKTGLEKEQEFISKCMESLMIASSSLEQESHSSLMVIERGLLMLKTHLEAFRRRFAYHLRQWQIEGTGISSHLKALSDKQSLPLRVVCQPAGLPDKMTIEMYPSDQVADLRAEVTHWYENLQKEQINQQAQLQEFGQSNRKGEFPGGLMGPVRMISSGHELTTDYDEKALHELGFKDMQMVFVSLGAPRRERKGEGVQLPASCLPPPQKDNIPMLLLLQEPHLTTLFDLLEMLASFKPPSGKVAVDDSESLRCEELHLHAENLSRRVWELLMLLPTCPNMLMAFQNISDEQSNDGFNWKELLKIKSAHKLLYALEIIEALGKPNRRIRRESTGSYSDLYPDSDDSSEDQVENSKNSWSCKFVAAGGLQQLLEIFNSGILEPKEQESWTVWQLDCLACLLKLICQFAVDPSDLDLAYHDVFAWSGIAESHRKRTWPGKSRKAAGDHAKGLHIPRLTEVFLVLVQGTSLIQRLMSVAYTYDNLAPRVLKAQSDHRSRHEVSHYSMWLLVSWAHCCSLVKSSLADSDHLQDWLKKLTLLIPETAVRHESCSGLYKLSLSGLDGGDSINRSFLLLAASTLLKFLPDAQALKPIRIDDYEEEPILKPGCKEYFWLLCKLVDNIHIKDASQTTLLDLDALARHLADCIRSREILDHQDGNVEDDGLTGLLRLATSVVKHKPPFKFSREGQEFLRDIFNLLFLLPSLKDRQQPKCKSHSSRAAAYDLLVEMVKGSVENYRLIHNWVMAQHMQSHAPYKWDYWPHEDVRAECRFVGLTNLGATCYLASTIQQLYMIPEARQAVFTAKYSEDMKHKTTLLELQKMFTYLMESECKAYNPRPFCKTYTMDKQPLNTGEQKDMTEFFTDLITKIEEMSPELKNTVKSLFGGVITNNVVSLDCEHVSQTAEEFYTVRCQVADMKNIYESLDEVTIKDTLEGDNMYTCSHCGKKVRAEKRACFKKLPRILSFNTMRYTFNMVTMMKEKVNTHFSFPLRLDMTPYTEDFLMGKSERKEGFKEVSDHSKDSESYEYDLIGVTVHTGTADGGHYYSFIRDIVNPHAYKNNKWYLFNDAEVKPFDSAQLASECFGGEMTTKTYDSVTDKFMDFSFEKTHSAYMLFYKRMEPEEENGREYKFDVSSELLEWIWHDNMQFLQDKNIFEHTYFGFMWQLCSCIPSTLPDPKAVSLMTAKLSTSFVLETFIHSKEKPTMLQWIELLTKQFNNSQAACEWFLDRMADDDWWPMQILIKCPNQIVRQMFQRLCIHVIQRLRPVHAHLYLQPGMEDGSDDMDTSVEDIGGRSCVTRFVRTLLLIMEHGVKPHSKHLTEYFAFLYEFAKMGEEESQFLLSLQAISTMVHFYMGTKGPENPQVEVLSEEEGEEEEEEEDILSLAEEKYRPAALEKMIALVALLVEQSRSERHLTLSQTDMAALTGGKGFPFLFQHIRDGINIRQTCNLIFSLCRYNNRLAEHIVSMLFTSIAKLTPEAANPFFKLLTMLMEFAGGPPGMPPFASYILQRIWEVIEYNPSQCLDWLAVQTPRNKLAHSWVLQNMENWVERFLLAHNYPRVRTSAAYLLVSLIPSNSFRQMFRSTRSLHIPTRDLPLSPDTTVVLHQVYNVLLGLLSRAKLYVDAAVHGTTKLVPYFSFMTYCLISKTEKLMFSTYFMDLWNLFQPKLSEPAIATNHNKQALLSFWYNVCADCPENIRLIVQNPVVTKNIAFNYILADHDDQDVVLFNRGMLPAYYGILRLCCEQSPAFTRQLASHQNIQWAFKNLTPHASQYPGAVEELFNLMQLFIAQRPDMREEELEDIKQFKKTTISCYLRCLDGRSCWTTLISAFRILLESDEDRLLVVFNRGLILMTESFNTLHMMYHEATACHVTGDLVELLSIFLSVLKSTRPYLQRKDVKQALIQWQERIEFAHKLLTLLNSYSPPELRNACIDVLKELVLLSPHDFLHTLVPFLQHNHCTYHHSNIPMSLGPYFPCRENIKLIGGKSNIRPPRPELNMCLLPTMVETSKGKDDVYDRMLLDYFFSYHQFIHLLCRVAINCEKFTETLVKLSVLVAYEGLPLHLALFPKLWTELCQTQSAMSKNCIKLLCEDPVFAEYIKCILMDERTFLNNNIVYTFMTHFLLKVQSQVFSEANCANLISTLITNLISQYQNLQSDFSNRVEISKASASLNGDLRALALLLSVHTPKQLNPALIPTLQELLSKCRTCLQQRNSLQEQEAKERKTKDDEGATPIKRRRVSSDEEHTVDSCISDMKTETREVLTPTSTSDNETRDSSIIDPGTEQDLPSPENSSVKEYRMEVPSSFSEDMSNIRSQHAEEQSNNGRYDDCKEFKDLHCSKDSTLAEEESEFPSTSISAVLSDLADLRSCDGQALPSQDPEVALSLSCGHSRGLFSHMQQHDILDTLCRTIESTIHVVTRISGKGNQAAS
UniProt Q9NQZ2, 354-373: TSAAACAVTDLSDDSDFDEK
UniProt Q9BVJ6: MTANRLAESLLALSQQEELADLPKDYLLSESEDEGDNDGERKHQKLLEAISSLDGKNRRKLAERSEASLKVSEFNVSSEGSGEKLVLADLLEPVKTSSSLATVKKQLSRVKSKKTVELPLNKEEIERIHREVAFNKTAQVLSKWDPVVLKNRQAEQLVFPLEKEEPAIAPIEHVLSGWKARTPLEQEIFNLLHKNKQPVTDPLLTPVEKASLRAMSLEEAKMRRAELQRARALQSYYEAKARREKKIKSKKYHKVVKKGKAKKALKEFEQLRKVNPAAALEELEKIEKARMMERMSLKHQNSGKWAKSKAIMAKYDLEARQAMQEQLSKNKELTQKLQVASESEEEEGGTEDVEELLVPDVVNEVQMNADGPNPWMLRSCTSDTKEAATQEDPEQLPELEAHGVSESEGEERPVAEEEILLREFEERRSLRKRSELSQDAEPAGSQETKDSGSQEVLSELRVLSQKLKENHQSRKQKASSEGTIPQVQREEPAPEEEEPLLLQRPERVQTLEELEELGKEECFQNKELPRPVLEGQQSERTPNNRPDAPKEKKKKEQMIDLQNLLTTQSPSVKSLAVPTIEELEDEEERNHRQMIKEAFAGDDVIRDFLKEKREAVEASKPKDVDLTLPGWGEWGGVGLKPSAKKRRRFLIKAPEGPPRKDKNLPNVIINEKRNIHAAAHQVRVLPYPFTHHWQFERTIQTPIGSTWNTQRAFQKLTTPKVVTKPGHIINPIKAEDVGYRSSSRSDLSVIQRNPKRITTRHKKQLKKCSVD
UniProt Q9NYH9: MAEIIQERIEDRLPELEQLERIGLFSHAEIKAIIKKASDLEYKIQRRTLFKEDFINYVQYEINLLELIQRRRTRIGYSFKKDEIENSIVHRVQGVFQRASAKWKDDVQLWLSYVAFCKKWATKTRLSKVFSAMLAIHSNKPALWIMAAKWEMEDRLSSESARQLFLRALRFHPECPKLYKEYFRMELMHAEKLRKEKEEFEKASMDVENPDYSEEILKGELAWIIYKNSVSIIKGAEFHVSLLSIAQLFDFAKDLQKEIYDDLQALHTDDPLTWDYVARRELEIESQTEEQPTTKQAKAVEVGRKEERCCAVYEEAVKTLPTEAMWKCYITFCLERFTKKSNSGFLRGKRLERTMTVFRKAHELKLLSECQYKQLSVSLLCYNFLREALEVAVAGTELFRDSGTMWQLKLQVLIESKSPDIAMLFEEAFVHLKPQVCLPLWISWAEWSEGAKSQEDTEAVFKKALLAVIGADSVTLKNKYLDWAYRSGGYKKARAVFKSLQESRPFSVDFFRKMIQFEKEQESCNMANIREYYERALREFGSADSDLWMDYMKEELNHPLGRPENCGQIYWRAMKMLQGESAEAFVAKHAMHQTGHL

Key:
[1] = compound: ClCC(=O)N[C@@H]1CCCc2ccccc12; experiment: log2 mean competition ratio of IA-DTB cysteine labelling (DMSO/compound) (log2 ratio); higher = stronger cysteine engagement by compound; settings: treatment time: 4 h, cell line lysate: HEK293T
Procedure: (§1)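 IA-DTB competitive cysteine chemoproteomics in HEK293T RIPA lysate. Lysates were treated with compound 29 or 30 at 50 or 200 µM for 4 h, then IA-DTB (500 µM, 1 h), trypsin-digested, NeutrAvidin-enriched and analysed by diaPASEF. Competition ratio = intensity DMSO / intensity compound (n=4 treated, n=64 DMSO); binding: mean log2 CR ≥ 1 and p ≤ 0.05 plus QC filters. Target is the cysteine site.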

[2] = compound: ClCC(=O)N[C@H]1CCCc2ccccc12; experiment: as above; settings: treatment time: 4 h, cell line lysate: HEK293T
Procedure: as §1

| Target | log2 mean competition ratio ([1]; 50 µM) | log2 mean competition ratio ([1]; 200 µM) | log2 mean competition ratio ([2]; 50 µM) | log2 mean competition ratio ([2]; 200 µM) |
| --- | --- | --- | --- | --- |
| UQCRC1 C380 (UniProt P31930) | 0.0617 | -0.136 | -0.296 | -0.0906 |
| USP9X C1451 (UniProt Q93008) | -0.052 | -0.0331 | 0.191 | -0.129 |
| UBXN4 C155 (UniProt Q92575) | 0.137 | -0.114 | 0.132 | -0.0441 |
| UFL1 C372 (UniProt O94874) | 0.179 | 0.104 | -0.171 | 0.0238 |
| UQCRC2 C192 (UniProt P22695) | -0.077 | -0.119 | -0.15 | -0.0259 |
| UTRN C2185 (UniProt P46939) | 0.0598 | -0.359 | -0.194 | -0.361 |
| UFL1 C32 (UniProt O94874) | -0.0682 | -0.124 | -0.00719 | -0.0245 |
| USP25 C1015 (UniProt Q9UHP3) | -0.0866 | -0.142 | 0.589 | 0.0232 |
| VAX2 C76 | 0.0804 | 0.0432 | 0.00661 | 0.792 |
| USP32 C1183 (UniProt Q8NFA0) | -0.117 | 0.25 | -0.483 | 0.0314 |
| UNC45A C927 (UniProt Q9H3U1) | -0.127 | -0.0557 | -0.0375 | 0.0249 |
| ULK3 C308 (UniProt Q6PHR2) | 0.0462 | -0.138 | -0.0949 | -0.181 |
| UNC119B C201 (UniProt A6NIH7) | 0.132 | 0.0607 | -0.0688 | 0.373 |
| VAPB C121 (UniProt O95292) | 0.156 | -0.0476 | 0.0444 | -0.0572 |
| USP3 C362 (UniProt Q9Y6I4) | -0.0208 | 0.252 | 0.278 | 0.305 |
| USP53 C380 | 0.126 | -0.151 | -0.228 | -0.277 |
| UIMC1 C661 (UniProt Q96RL1) | 0.117 | 0.145 | -0.213 | 0.226 |
| VAPB C173 (UniProt O95292) | 0.0357 | -0.124 | -0.0882 | -0.133 |
| USP9X C2107 (UniProt Q93008) | -0.256 | -0.201 | -0.266 | -0.196 |
| VPS13C C2925 (UniProt Q709C8) | 0.379 | 0.387 | -0.0574 | 0.174 |
| VARS1 C663 | -0.216 | -0.13 | -0.0415 | 0.0426 |
| USP37 C538 (UniProt Q86T82) | 0.208 | -0.0552 | -0.304 | -0.139 |
| UGGT1 C1386 (UniProt Q9NYU2) | 0.268 | 0.316 | 0.405 | 0.355 |

Quoted from the listing.
Under log2 mean competition ratio ([2]; 200 µM), UFL1 C372 (UniProt O94874) is entered as 0.0238
Under log2 mean competition ratio ([1]; 200 µM), VAPB C121 (UniProt O95292) is entered as -0.0476
Under log2 mean competition ratio ([2]; 200 µM), ULK3 C308 (UniProt Q6PHR2) is entered as -0.181

The list goes on:

| Target | log2 mean competition ratio ([1]; 50 µM) | log2 mean competition ratio ([1]; 200 µM) | log2 mean competition ratio ([2]; 50 µM) | log2 mean competition ratio ([2]; 200 µM) |
| --- | --- | --- | --- | --- |
| UTRN C2986 (UniProt P46939) | 0.128 | 0.0345 | 0.388 | 0.218 |
| VKORC1L1 C50 | 0.0731 | 6.33e-05 | -0.107 | 0.0973 |
| VARS2 C484 | 0.116 | -0.258 | 0.412 | 0.0732 |
| VPS13C C3707 (UniProt Q709C8) | 0.0327 | -0.0219 | -0.139 | 0.0761 |
| URB1 C1900 (UniProt O60287) | 0.237 | -0.247 | 0.0224 | -0.307 |
| VARS1 C682 | 0.0389 | -0.174 | 0.0979 | -0.142 |
| UTP20 C1730 (UniProt O75691) | -0.247 | 0.396 | -0.313 | 0.461 |
| USP34 C111 (UniProt Q70CQ2) | -0.339 | -0.0451 | -0.259 | 0.0868 |
| URB2 C1280 (UniProt Q14146) | 0.0994 | 0.281 | -0.646 | 0.302 |
| USP46 C222 (UniProt P62068) | -0.132 | -0.436 | -0.257 | -0.373 |
| UGDH C64 (UniProt O60701) | -0.0574 | 0.155 | 0.127 | 0.305 |
| USP24 C1202 (UniProt Q9UPU5) | 0.471 | -0.061 | 0.619 | 0.171 |
| UTP3 C359 (UniProt Q9NQZ2) | -0.305 | -0.157 | 0.144 | 0.0184 |
| UNC45A C503 (UniProt Q9H3U1) | 0.199 | 0.163 | 0.432 | 0.265 |
| UTP18 C241 (UniProt Q9Y5J1) | 0.381 | -0.386 | 0.367 | -0.368 |
| UTP14A C522 (UniProt Q9BVJ6) | -0.204 | 0.107 | -0.306 | -0.0885 |
| USF2 C265 (UniProt Q15853) | -0.17 | 0.0565 | -0.207 | 0.453 |
| UCHL5 C191 | -0.145 | 0.137 | -0.704 | -0.441 |
| UPF2 C1107 (UniProt Q9HAU5) | 0.0845 | -0.245 | -0.165 | -0.743 |
| UTP6 C524 (UniProt Q9NYH9) | 0.105 | 0.0205 | -0.226 | 0.0741 |
| UROS C130 (UniProt P10746) | -0.142 | -0.349 | 0.129 | 0.0776 |
| UTP25 C642 | -0.198 | -0.117 | -0.193 | -0.361 |
